These results are taken from paper PMC12655669.

In the assay the target is T1, triggering receptor expressed on myeloid cells 2 (Trem2) (mouse (endogenous in murine macrophages)) (UniProt Q99NH8).
T1 sequence: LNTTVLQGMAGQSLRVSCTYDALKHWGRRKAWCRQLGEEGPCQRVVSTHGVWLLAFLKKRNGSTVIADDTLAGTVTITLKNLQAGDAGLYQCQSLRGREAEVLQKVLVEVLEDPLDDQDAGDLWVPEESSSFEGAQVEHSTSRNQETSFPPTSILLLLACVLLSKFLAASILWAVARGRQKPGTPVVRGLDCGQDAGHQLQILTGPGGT
As to the kind of experiment: co-IP; macrophage cell lysates in RIPA buffer with PMSF; 2 ug anti-Trem2 or control IgG antibody, 4 °C, 2 h; Protein A/G Plus-Agarose overnight at 4 °C; washed with lysis buffer; immunoblot for MICAL1 and Trem2.

Results are given in words; binding and its absence hold for the method and conditions named. Binding seen in cells or lysates may run through a third protein. Some entries that bind do so weakly or less than the wild type.

B1: MICAL1 (enzyme, UniProt Q8VDP3 1-1048)
chain: MASPASTNPAHDHFETFVQAQLCQDVLSSFQGLCRALGVESGGGLSQYHKIKAQLNYWSAKSLWAKLDKRASQPVYQQGQACTNTKCLVVGAGPCGLRAAVELALLGARVVLVEKRIKFSRHNVLHLWPFTIHDLRALGAKKFYGRFCTGTLDHISIRQLQLLLLKVALLLGVEIHWGVKFTGLQPPPRKGSGWRAQLQPNPPAQLASYEFDVLISAAGGKFVPEGFTIREMRGKLAIGITANFVNGRTVEETQVPEISGVARIYNQKFFQSLLKATGIDLENIVYYKDETHYFVMTAKKQCLLRLGVLRQDLSETDQLLGKANVVPEALQRFARAAADFATHGKLGKLEFAQDARGRPDVAAFDFTSMMRAESSARVQEKHGARLLLGLVGDCLVEPFWPLGTGVARGFLAAFDAAWMVKRWAEGAGPLEVLAERESLYQLLSQTSPENMHRNVAQYGLDPATRYPNLNLRAVTPNQVQDLYDMMDKEHAQRKSDEPDSRKTTTGSAGTEELLHWCQEQTAGFPGVHVTDFSSSWADGLALCALVHHLQPGLLEPSELQGMGALEATTWALRVAEHELGITPVLSAQAVMAGSDPLGLIAYLSHFHSAFKNTSHSSGLVSQPSGTPSAILFLGKLQRSLQRTRAKVDEETPSTEEPPVSEPSMSPNTPELSEHQEAGAEELCELCGKHLYILERFCVDGHFFHRSCFCCHTCEATLWPGGYGQHPGDGHFYCLQHLPQEDQKEADNNGSLESQELPTPGDSNMQPDPSSPPVTRVSPVPSPSQPARRLIRLSSLERLRLSSLNIIPDSGAEPPPKPPRSCSDLARESLKSSFVGWGVPVQAPQVPEAIEKGDDEEEEEEEEEEEEEPLPPLEPELEQTLLTLAKNPGAMTKYPTWRRTLMRRAKEEEMKRFCKAQAIQRRLNEIEATMRELEAEGTKLELALRKESSSPEQQKKLWLDQLLRLIQKKNSLVTEEAELMITVQELDLEEKQRQLDHELRGYMNREETMKTEADLQSENQVLRKLLEVVNQRDALIQFQEERRLREMPA
In the case of B1, the binding result was “binds”.
